Screening data

The results are deposited in PubChem (AID1159506; NCATS, 2015).

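Luminescence from an EWS-FLI1 target-promoter (NR0B1) reporter, set against a CMV-promoter reporter, two days after silencing single genes in TC32 Ewing sarcoma cells. Each siRNA was applied at 20 nM. A z-score of the log NR0B1-over-CMV signal, less the median of siRNAs with the same seed; more negative means a stronger specific loss of the NR0B1 reporter.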

This is part of the screen; most of the strongest results are not listed here. Sequences are the guide (antisense) strand, without overhang.

Sequence | gene | seed-corrected z-score
UAGGCUAGGAGGUAGAUGC | DOLK | 1.61
UAUCCUUAUUGACAAUAGC | ZFPM2 | 0.5382
UGAAGUACUCCCGAAGUCG | MSANTD2 | 1.159
UCAGAUACAUUUGCGAGGC | CD163L1 | 0.7763
UCCGAGAUAACUUCAGAGA | SDS | -0.3102
UCACUGUUGAGGACGAAGA | GMPPB | -0.1379
AGGUGUAUAAUAGCGAUAC | SPATA7 | -0.5066
UCGGUCACAAGAGGUGUUC | PNLDC1 | -0.8724
UGAGGCCAAACGGCAAAGC | UNCX | 1.98
UGCUGGGUGAAGUUGAGGC | OMP | -0.673
UAGCUGUAAAGAUUCUCGG | CEACAM21 | -0.9249
UAUAGGGAUGCAGUGAGUG | FOXN3-AS1 | 0.3336
UCAAGCUCCCGUUUGGUUG | USP22 | -0.09577
UUUGAAAACGAUCUCAGCC | MRPS17 | 0.04172
UAAGGUUUAGCUGAGGACG | PRR14 | -0.2625
UUCCUAUCCCUCUUUUUCC | RIBC2 | 1.706
UAUGCAUAAAUGUGAUUGC | CASP6 | 0.1742
UAGGCGAUGAUCAUGUUGU | SLC6A7 | -0.1345
UCCAUUAUAGUGCAACUGC | PTPN21 | -0.04137
UAUGUAUCGAGGUCUGUAC | NKAIN3 | -1.94
UUCCGUUUCAGGACAGAUG | VIMP | -0.09739
UCAAUGAUGACUUCUAGUU | SLC8A3 | -0.5799
UUGGUGAAGCGUAUCUUGC | HSFY1 | -0.04471
AAUUCCAUAGGUGUCUUCC | FASLG | -0.4692
ACUUGUAACAGCUUCUAGG | STRN | 0.4712
UUCUUGACCAAUUGAGCUC | SCP2D1 | -0.1669
UCAUUGCAGUGAAAGGUUG | NAT8 | -0.6972
UGUGCUAAUACAGUGCACC | TFCP2 | -0.7443
AAUGUAACCAUCGCUGCAG | PLPP1 | 0.05086
UAGCUCAUCACCGAUACCC | ALAD | 0.5635
UUUGCGACCAUAUACUUGC | CNN3P1 | -0.346
UCGUGCACAAGCAUUUUCC | SLC44A1 | 0.5183
UUCCUCGCAAAUGAUGUUU | JOSD1 | 0.04233
UCAGACUAAAGAUACAGCC | OR5AU1 | -1.255
UACUCGGUACCAUAUGUUG | MEF2C | -0.03795
AUGGUGAAUAAGCAGGCCU | POLR2J2 | -0.3072
AAUAAUUCCUGUAUAGCUG | SLC25A16 | 0.01103
UUCUUGCUCACAGGUGGGU | KRTAP5-11 | -0.9467
UUCUCGUAGGGAUCAGGGC | CACNA1H | 0.5054
UCCUUGAACUGGAAGUCGG | MOB2 | 0.4638
UACAGUGUAAGUAUAGCUG | FGF5 | 0.6931
UGUCCAAUACCACUUGUCC | ACSF2 | -0.3391
UUAAGAUUCCGCACUUUGG | FAM209A | 0.1406
UUCUAGAUUCUCAAUUUCC | SLK | -0.208
UUCCAGAUCAUUAGUGCCG | SEC11A | -0.4451
UAUUCGAACAUGAUCUUCC | RGL1 | 0.3842
UGUUUUUAGUGGGAAGCUC | NPDC1 | -0.537
UAGACAGCUAGCGUGAUCC | OXTR | -1.129
UGGUUGACAAGGUAUCGGC | SLC27A3 | 0.2004

Some entries from above, unchanged:

- UGCUGGGUGAAGUUGAGGC against OMP | seed-corrected z-score -0.673
- UAUGCAUAAAUGUGAUUGC against CASP6 | seed-corrected z-score 0.1742
- UAGGCUAGGAGGUAGAUGC against DOLK | seed-corrected z-score 1.61
- UUCUUGCUCACAGGUGGGU against KRTAP5-11 | seed-corrected z-score -0.9467
- UCAAGCUCCCGUUUGGUUG against USP22 | seed-corrected z-score -0.09577